Values quoted from earlier work as cited in patent publication US20030176314A1, “Compounds for the treatment of pain” (priority 2001, published 2003).
At least one compound was matched to its structure with a doubt left.

Tested on: distension induced contractions of the rat bladder
Conditions: drugs used therapeutically in humans, from publications; cited from earlier work

## COC(=O)C1=C(C)NC(C)=C(C(=O)OC)C1c1ccccc1[N+](=O)[O-] [nifedipine]
  activity in the DIRC model: active
